{"sequences": {"note": "Sequences of proteins named here, by UniProt entry; tags and fusion partners are left off. A change or cut given only in a name is not applied to a line headed by its entry.", "UniProt Q9P0K8": "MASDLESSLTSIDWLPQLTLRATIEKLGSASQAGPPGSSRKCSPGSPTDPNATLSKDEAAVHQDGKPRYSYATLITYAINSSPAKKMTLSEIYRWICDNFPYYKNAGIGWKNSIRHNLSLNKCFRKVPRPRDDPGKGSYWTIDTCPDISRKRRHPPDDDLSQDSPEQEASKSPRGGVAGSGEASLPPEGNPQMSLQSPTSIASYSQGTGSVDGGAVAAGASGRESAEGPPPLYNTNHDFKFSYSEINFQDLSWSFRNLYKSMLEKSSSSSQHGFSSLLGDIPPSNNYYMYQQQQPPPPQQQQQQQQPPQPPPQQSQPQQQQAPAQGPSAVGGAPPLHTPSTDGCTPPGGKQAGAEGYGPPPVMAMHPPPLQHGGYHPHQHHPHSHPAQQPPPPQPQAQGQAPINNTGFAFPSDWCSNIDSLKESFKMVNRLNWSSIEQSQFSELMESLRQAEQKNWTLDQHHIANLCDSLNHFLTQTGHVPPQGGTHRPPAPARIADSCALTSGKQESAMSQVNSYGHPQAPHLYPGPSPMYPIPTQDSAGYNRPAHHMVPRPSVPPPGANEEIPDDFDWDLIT", "UniProt P62633": "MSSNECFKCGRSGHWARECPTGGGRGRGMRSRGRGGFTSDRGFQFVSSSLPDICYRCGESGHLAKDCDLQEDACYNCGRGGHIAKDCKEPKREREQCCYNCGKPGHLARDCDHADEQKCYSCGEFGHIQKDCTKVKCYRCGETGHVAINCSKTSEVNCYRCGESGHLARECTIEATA"}, "source": "paper PMC6193743", "key": {"[1]": {"biological_target": "Flag-FOXJ2 (Homo sapiens) (UniProt Q9P0K8)", "experiment": "EMSA", "details": "Chemiluminescent EMSA Kit (Thermo) binding buffer, room temperature, 20 min, 5% polyacrylamide gel; salt and pH not stated; protein in a lysate after overexpression; protein details: Flag; single-stranded DNA"}, "HIS-CNBP (Homo sapiens)": {"biological_target": "HIS-CNBP (Homo sapiens) (UniProt P62633)", "experiment": "EMSA", "details": "Flag-FOXJ2 present (disrupts CNBP binding); Chemiluminescent EMSA Kit (Thermo) binding buffer, room temperature, 20 min, 5% polyacrylamide gel; salt and pH not stated; recombinant protein; protein details: His (pET-28a); single-stranded DNA"}}, "note": "Construct, isoform or probe ends are uncertain for at least one entry. For some assays here: The comparison behind a weaker result is the experiment's own reference, which may not be listed here. For some assays here: Where cells or extracts were used, other partners may take part. For some assays here: A negative result means that nothing was seen under these conditions."}
{"sequence": "GGGCTGGCGCGGAGGGAGGG [Biotin-G20]", "values": [{"measurement": "binding result", "setting": "[1]", "result": "no binding"}, {"measurement": "binding result", "setting": "HIS-CNBP (Homo sapiens)", "result": "binds more weakly"}]}
